Reference: PubChem BioAssay AID504744 (Drosophila RNAi Screening Center, 2011)
Screen: 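Identify dsRNAs that increase or decrease phospho-dAkt after insulin treatment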 (primary screen). System: Drosophila Kc167 cells. Knock-down reagent: long dsRNA against Drosophila genes, 250 ng dsRNA per well of a 384-well plate. Duration: 3 days of knock-down, then overnight serum-free starvation before stimulation. Treatment: bovine insulin at 387 nM for 10 minutes after 12 h without serum. Measured: 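Per-well phospho-dAkt level from an in-cell fluorescent antibody stain, divided by a DNA-dye signal; log2 residuals turned into z-scores that take cell number into account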. Rule for the call: 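Hit in the insulin screen when the two-replicate mean z-score is more extreme than plus or minus 2.5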.
The screen tested about 23,000 reagents; this is an unselected part of those with a known target gene and a result. Of all reagents, 98 (0.43%) are marked active. 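Only hit calls are given; the phospho-dAkt signals, z-scores and hit direction were not deposited.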 The numbers tell different reagents against one gene apart. A plus sign joins genes that one reagent is predicted to hit. Reagent sequences are not shown.

The opening 16 records, to show the layout:
gene	dsRNA no.	Call
Vha16-2 (Vacuolar H[+] ATPase 16kD subunit 2)	1	inactive
mei-217 + mei-218	1	inactive
CG11598	1	inactive
CG17570	1	inactive
CG17570	2	inactive
CG10126	1	inactive
CNMa (CNMamide)	1	inactive
sphinx2	1	inactive
CG13751	1	inactive
Hug (Hugin)	1	inactive
Ttc30 (Tetratricopeptide repeat domain 30)	1	inactive
Ttc30 (Tetratricopeptide repeat domain 30)	2	inactive
Marf1 (Meiosis regulator and mRNA stability factor 1)	1	inactive
Marf1 (Meiosis regulator and mRNA stability factor 1)	2	inactive
Liprin-gamma	1	inactive
PDCD-5 (Programmed Cell Death 5)	1	inactive

Results, from the first entry:
gene	dsRNA no.	Call
Vha16-2 (Vacuolar H[+] ATPase 16kD subunit 2)	1	inactive
mei-217 + mei-218	1	inactive
CG11598	1	inactive
CG17570	1	inactive
CG17570	2	inactive
CG10126	1	inactive
CNMa (CNMamide)	1	inactive
sphinx2	1	inactive
CG13751	1	inactive
Hug (Hugin)	1	inactive
Ttc30 (Tetratricopeptide repeat domain 30)	1	inactive
Ttc30 (Tetratricopeptide repeat domain 30)	2	inactive
Marf1 (Meiosis regulator and mRNA stability factor 1)	1	inactive
Marf1 (Meiosis regulator and mRNA stability factor 1)	2	inactive
Liprin-gamma	1	inactive
PDCD-5 (Programmed Cell Death 5)	1	inactive
TTLL4A (Tubulin tyrosine ligase-like 4A)	1	inactive
CG11857	1	inactive
Dcr-1 (Dicer-1)	1	inactive
Sytalpha (Synaptotagmin alpha)	1	inactive
CG2931	1	inactive
CG7406	1	inactive
Galphai (G protein alpha subunit i)	1	inactive
CG31457	1	inactive
CG34328	1	inactive
ETHR	1	inactive
CG17493	1	inactive
CG12836	1	inactive
CG9919	1	inactive
CG14341	1	inactive
Flacc (Fl(2)d-associated complex component)	1	inactive
CG14089	1	inactive
CG13131	1	inactive
CG4022	1	inactive
Cyp4s3 (Cytochrome P450 4s3)	1	inactive
Cyp4s3 (Cytochrome P450 4s3)	2	inactive
CG3107	1	inactive
Vps28 (Vacuolar protein sorting 28)	1	inactive
eIF2beta (eukaryotic translation initiation factor 2 subunit beta)	1	inactive
CanB2 (Calcineurin B2)	1	inactive
cyp33 + CG34194	1	inactive
RpL24-like (Ribosomal protein L24-like)	1	inactive
CG10474	1	inactive
Hsc70-3 (Heat shock protein 70 cognate 3)	1	inactive
CG11333	1	inactive
Tret1-1 (Trehalose transporter 1-1)	1	inactive
Tret1-1 (Trehalose transporter 1-1)	2	inactive
CG17687	1	inactive
CG6701	1	inactive
Cpr78Ca (Cuticular protein 78Ca)	1	inactive
CG16972	1	inactive
Ca-alpha1D (Ca[2+]-channel protein alpha[[1]] subunit D)	1	inactive
CG45002	1	inactive
bsk (basket)	1	inactive
ksr (kinase suppressor of ras)	1	inactive
Lkr (Leucokinin receptor)	1	inactive
TpnC47D (Troponin C at 47D)	1	inactive
eya (eyes absent)	1	inactive
Npc2h (Niemann-Pick type C-2h)	1	inactive
CG10863	1	inactive
Bace (beta-site APP-cleaving enzyme)	1	inactive
Ir52c (Ionotropic receptor 52c)	1	inactive
CG10702	1	inactive
GLaz (Glial Lazarillo)	1	inactive
M1BP (Motif 1 Binding Protein)	1	inactive
CG15930	1	inactive
Polr2G (RNA polymerase II subunit G)	1	inactive
CG7639	1	inactive
Alp10 (Alkaline phosphatase 10)	1	inactive
PH4alphaEFB (prolyl-4-hydroxylase-alpha EFB)	1	inactive
PH4alphaEFB (prolyl-4-hydroxylase-alpha EFB)	2	inactive
CG13813	1	inactive
dgt1 (dim gamma-tubulin 1)	1	inactive
Desat2 (Desaturase 2)	1	inactive
CG32201	1	inactive
Kdm3 (Lysine demethylase 3)	1	inactive
CG14840	1	inactive
COX5B (Cytochrome c oxidase subunit 5B)	1	inactive
Obp83cd (Odorant-binding protein 83cd)	1	inactive
CG32085	1	inactive
CG32085	2	inactive
CG32085	3	inactive
CR32011 + CR32010 + PlexB + 1 more	1	inactive
Twdlbeta (Tweedlebeta)	1	inactive
CG15153	1	inactive
Mdr65 (Multi drug resistance 65)	1	inactive
CG8778	1	inactive
Acsx3 (Acyl-CoA synthetase X3)	1	inactive
CG13124	1	inactive
Cyp4d2 (Cytochrome P450 4d2)	1	inactive
ND-39 (NADH dehydrogenase (ubiquinone) 39 kDa subunit)	1	inactive
bft (retired record)	1	inactive
Rpt1 (Regulatory particle triple-A ATPase 1)	1	inactive
l(2)efl (lethal (2) essential for life)	1	inactive
PPO1 (Prophenoloxidase 1)	1	inactive
CG12688 (retired record)	1	inactive
CG12688 (retired record)	2	inactive
arr (arrow)	1	inactive
ics (icarus)	1	inactive
CG11892	1	inactive
CG14645	1	inactive
CG13545	1	inactive
Atg10 + CG18853 + CG12822	1	inactive
mTerf3 (mitochondrial transcription termination factor 3)	1	inactive
CG4789	1	inactive
Grl36a (Gustatory receptor-like 36a)	1	inactive
CG13921	1	inactive
CG3216	1	inactive
CG6051	1	inactive
Rab4	1	inactive
RunxB (Runt related B)	1	inactive
RunxB (Runt related B)	2	inactive
RunxB (Runt related B)	3	inactive
Gs1 (Glutamine synthetase 1)	1	inactive
CG6106	1	inactive
Blm + CG14721	1	inactive
EcR (Ecdysone receptor)	1	inactive
EcR (Ecdysone receptor)	2	inactive
CG4563	1	inactive
CG31051	1	inactive
CG34427	1	inactive
CG2909	1	inactive
Dcp-1 (Death caspase-1)	1	inactive
fra (frazzled)	1	inactive
karr	1	inactive
Desat1 (Desaturase 1)	1	inactive
CG14892	1	inactive
Mst77F (Male-specific transcript 77F)	1	inactive
RpL10Aa (Ribosomal protein L10Aa)	1	inactive
CG10561	1	inactive
CG42525	1	inactive
CG13531	1	inactive
CG31122	1	inactive
CG31122	2	inactive
AhcyL2 (Adenosylhomocysteinase like 2)	1	inactive
UQCR-14L (Ubiquinol-cytochrome c reductase 14 kDa subunit-like)	1	inactive
UQCR-14L (Ubiquinol-cytochrome c reductase 14 kDa subunit-like)	2	inactive
CG7432	1	inactive
CG7564	1	inactive
fat-spondin	1	inactive
lky (leaky)	1	inactive
aralar1	1	inactive
aralar1	2	inactive
Ref1 (RNA and export factor binding protein 1)	1	inactive
Ref1 (RNA and export factor binding protein 1)	2	inactive
Nha2 (Na[+]/H[+] hydrogen antiporter 2)	1	inactive
Nha2 (Na[+]/H[+] hydrogen antiporter 2)	2	inactive
Nha2 (Na[+]/H[+] hydrogen antiporter 2)	3	inactive
Eip74EF (Ecdysone-induced protein 74EF)	1	inactive
Eip74EF (Ecdysone-induced protein 74EF)	2	inactive
Kr-h1 (Kruppel homolog 1)	1	inactive
Kr-h1 (Kruppel homolog 1)	2	inactive
ThrRS (Threonyl-tRNA synthetase)	1	inactive
CG1024	1	inactive
CG9485	1	inactive
CG1632	1	inactive
CG1632	2	inactive
